# Measurements as given in article PMC12670160, “A drug-repurposing screen of FDA- and EMA-approved drugs identifies two NF-κB inhibitors active against eumycetoma” (Journal of Antimicrobial Chemotherapy, 2025).
# Where a name gives a salt, the structure may show the parent alone. Read-outs that look alike come from different tables or passages of the source. The whole screen tested about 5,300 compounds, of which about 130 (2.5%) showed an effect of 50% or more. The list shows a part of the results.
# Test system: M. mycetomatis strain mm55
# Settings: primary screen, metabolic activity vs growth control, 96 h, 2 µM, inhibitor
# [1] = Madurella mycetomatis metabolic activity at 2µM (%)
Compound,% viability [%],% viability [1] [%]
"Oc1cc(O)c2cc(O)c(-c3cc(O)c(O)c(O)c3)[o+]c2c1 [ONC0003804, delphinidin]",67,
"O=C(O)c1cc(=O)c2ccccc2o1 [ONC0003089, chromocarb]",84.15,
"CCCn1c(=O)c2[nH]c(-c3cnn(Cc4cccc(C(F)(F)F)c4)c3)nc2n(CC)c1=O [ONC0001389, gs6201]",85.49,
"Fc1ccc(-c2nc(-c3c(F)cccc3F)[nH]c2-c2ccncc2)cc1 [ONC0000887, ta01]",46.48,
"CC(C)(C)c1ccc(C(=O)Nc2cn3cc(-n4ccnc4)ccc3n2)cc1 [ONC0000079, tcask10]",88.09,
"O=C(O)CN(CCN(CC(=O)O)CC(=O)O)CCN(CC(=O)O)CC(=O)O [ONC0005432, gadopenteticacid]",,103.1
"Nc1ncnc(Nc2ccc(Cl)cc2)n1 [ONC0002378, chlorazanil hydrochloride]",73.92,
"Cc1csc(S(=O)(=O)N(CC(C)C)c2cc3c(cc2OCc2ccc(C(=O)O)cc2)CCC3)n1 [ONC0003040, ono8130]",89.59,
"O=C(OC(C(F)(F)F)C(F)(F)F)N1CCC(C(O)(c2ccc3c(c2)OCO3)c2ccc3c(c2)OCO3)CC1 [ONC0001048, kml29]",83.75,
C[C@@H]1NC(=O)NC1=O [ONC0003683],85.47,
"CC(C)c1cccc2c1OC(C(C)C)C(=S)N2CC(=O)O (centres unmarked) [ONC0002963, 228diisopropyl3thioxo23dihydro4h14benzoxazin4ylacetic acid]",79.38,
"c1ccc2sc(SNC3CCCCC3)nc2c1 [ONC0003426, cbs ncyclohexyl2benzothiazolesulfenamide]",87.95,
"C[C@H](NC(=O)CNC(=O)c1cccc(Cl)c1)c1ccccc1 [ONC0001233, jnj63533054]",74.74,
"Cc1cccc(N2CC(CO)OC2=O)c1 (centres unmarked) [ONC0005385, toloxatone]",91.79,
"CC(=O)[C@@]12OC(C)(c3ccccc3)O[C@@H]1C[C@H]1[C@@H]3CCC4=CC(=O)CC[C@]4(C)[C@H]3CC[C@@]12C (some centres unmarked) [ONC0002369, algestoneacetophenide]",99.76,
"Cc1c(C(=O)NCCCO)cnn1-c1nc(-c2cccc(C(F)(F)F)c2)cs1 [ONC0001569, rwj50271]",88.88,
"CCN(CCO)CCCOc1ccc2c(Nc3cc(CC(=O)Nc4cccc(F)c4)[nH]n3)ncnc2c1 [ONC0004662, barasertib azd1152hqpa]",61.77,
"CC(=O)NC[C@H]1CN(c2ccc(N3CCN(C(=O)CO)CC3)c(F)c2)C(=O)O1 [ONC0000899, eperezolid]",53.13,
"C=CC(=O)N1CCC(Oc2cc3c(Nc4ccc(Cl)c(Cl)c4F)ncnc3cc2OC)CC1 [ONC0005175, poziotinib hm78136b]",136.1,
"Cc1c(Cc2ccc3ccccc3n2)c2cc(F)ccc2n1CC(=O)O [ONC0005065, oc000459]",61.99,
"CCCCCCCCCCCCCCCC(=O)OC(CC(=O)O)C[N+](C)(C)C (centres unmarked) [ONC0000226, palmitoylcarnitine]",67.54,

# Shown tab-delimited: entries from further up
Compound	% viability [%]	% viability [1] [%]
Oc1cc(O)c2cc(O)c(-c3cc(O)c(O)c(O)c3)[o+]c2c1 [ONC0003804, delphinidin]	67	
Fc1ccc(-c2nc(-c3c(F)cccc3F)[nH]c2-c2ccncc2)cc1 [ONC0000887, ta01]	46.48	
O=C(O)CN(CCN(CC(=O)O)CC(=O)O)CCN(CC(=O)O)CC(=O)O [ONC0005432, gadopenteticacid]		103.1
Nc1ncnc(Nc2ccc(Cl)cc2)n1 [ONC0002378, chlorazanil hydrochloride]	73.92	

# Continued.

Compound,% viability [%],% viability [1] [%]
"CCCCCCCCCCCCCCCC(=O)NCCO [ONC0005345, palmidrol 5mm]",120.7,
"N[C@H](Cc1c[nH]cn1)C(=O)O [ONC0001939, dhistidine]",75.44,
"CO[C@H]1O[C@@H]2O[C@@]3(C)CC[C@H]4[C@H](C)CC[C@@H]([C@H]1C)[C@@]24OO3 [ONC0000961, artemether]",58.3,
"Cc1ccc(/C=C2/C(=O)C3(C)CCC2C3(C)C)cc1 (centres unmarked) [ONC0003679, 34methylbenzylidenecamphor]",81.67,
"CC(C)(C)c1cc(C(=O)/C(C#N)=N/Nc2cccc(Cl)c2)no1 [ONC0001420, esi09]",55.71,
"O=c1c2ccccc2oc2ccccc12 [ONC0004769, xanthone genicide]",107.4,
"N#Cc1ccc(N(Cc2ccc(Br)cc2)n2cnnc2)cc1 [ONC0001601, ym511]",78.87,
"CC(C)(C)C(=O)NCCCC(=O)O [ONC0003709, pivagabine]",93.84,
"CCOc1ccc2nc(SCCN3CCOCC3)[nH]c2c1 [ONC0001849, fabomotizole hydrochloride]",108.3,
"Cn1ncc(Cl)c1-c1cc(C(=O)N[C@H](CN)Cc2cccc(F)c2)sc1Cl [ONC0002035, afuresertib]",61.08,
"CS(=O)(=O)n1cc2c(n1)CN([C@H]1CO[C@H](c3cc(F)ccc3F)[C@@H](N)C1)C2 [ONC0001802, omarigliptin]",89.74,
"O=C(O)CN(CCN(CC(=O)O)CC(=O)O)CCN(CC(=O)O)CC(=O)O [ONC0005602, pentetic acid]",,107.7
"CCCN(CCc1cccs1)[C@H]1CCc2c(O)cccc2C1 [ONC0001836, rotigotine]",86.85,
Clc1ccc(COC(Cn2ccnc2)c2ccc(Cl)cc2Cl)c(Cl)c1 (centres unmarked) [Miconazole nitrate],2.05,
"CC(C)=CCC[C@](C)(O)[C@H]1CC[C@]2(C)[C@@H]1[C@H](O)C[C@@H]1[C@@]3(C)CC[C@H](O)C(C)(C)[C@@H]3[C@@H](O)C[C@]12C [ONC0002452, 20sprotopanaxatriol]",91.03,
"NCCC(Oc1ccc(C(F)(F)F)cc1)c1ccccc1 (centres unmarked) [ONC0003187, norfluoxetine]",88.77,
"Cc1cc(=O)n(-c2ccccc2)n1C [ONC0003254, antipyrine]",103.3,
"O=C(NCCN1CCC(n2c(=O)[nH]c3ccccc32)CC1)c1cc2cc(F)ccc2[nH]1 [ONC0001720, fipi]",82.41,
"CN(C)C(=N)NCCC[C@H](N)C(=O)O [ONC0002981, asymmetricaldimethylarginine]",83.92,
"CC(C)[C@@H]1CC[C@@H](C)C[C@@H]1P(=O)(c1ccccc1)c1ccccc1 [ONC0003951, dpo1]",47.19,
